Binding screen against folded nucleic acids

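The test is a small-molecule microarray: each compound is printed twice on a reactive slide, and binding shows as fluorescence of the labelled oligonucleotide after washing. For the PreQ1, TPP and SAM-II riboswitches the laboratory earlier reported (doi:10.1038/s41467-019-09493-3) 1 µM RNA, 2 h, and a rule that included a mean Z-score above 3 (spot signal-to-noise against the whole library), a score well above that on a control array, and duplicate spots agreeing (coefficient of variation under 100). The data file gives only the calls; its cut-offs may differ, and compounds hitting several targets are kept. These are primary screening calls, not affinities; a compound without a hit may have attached poorly or may still bind in solution.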 Key: 1 = hit, 0 = tested without a hit. Compounds were drawn at random from those tested, without regard to their results.

Oligonucleotides screened, 5′ to 3′:
TPP: TPP riboswitch RNA three-way junction, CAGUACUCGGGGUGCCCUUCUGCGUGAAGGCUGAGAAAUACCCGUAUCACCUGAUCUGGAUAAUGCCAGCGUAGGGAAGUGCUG. About 24,000 compounds screened, about 160 hits.
PreQ1: PreQ1 riboswitch RNA pseudoknot, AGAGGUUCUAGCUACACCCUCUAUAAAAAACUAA. From B. subtilis. About 24,000 compounds screened, about 170 hits.

structure: C[C@]12CC[C@@H]3c4ccc(OCC(=O)O)cc4CC[C@H]3[C@@H]1CCC2=O
TPP: 0
PreQ1: 0

structure: CCOCCn1nc(C)cc1C(=O)N1CCC(N2CCCC(O)C2)CC1 (centres undefined)
TPP: 0
PreQ1: 0

structure: CC1CC(Nc2ccccc2)c2ccccc2N1C(=O)Cc1ccc(F)cc1 (centres undefined)
TPP: 0
PreQ1: 0

structure: Clc1ccc2nc(-c3ccsc3)c(NC3CCCCC3)n2c1
TPP: 0
PreQ1: 0

structure: O=C1c2[nH]nc(-c3ccccc3O)c2C(c2ccc(F)cc2)N1CCCO (centres undefined)
TPP: 0
PreQ1: 0

structure: Cc1c(CN2CCN(Cc3ccccc3)CC(O)C2)cnn1C (centres undefined)
TPP: 0
PreQ1: 0

structure: COCC(C)(C)C(=O)N1CCNC(c2ccccc2)C1 (centres undefined)
TPP: 0
PreQ1: 0

structure: Cc1noc(C)c1C(=O)NC[C@@H]1C[C@H](F)CN1
TPP: 0
PreQ1: 0

structure: CC(NCCCc1cccnc1)C(=O)NC1CCCC1 (centres undefined)
TPP: 0
PreQ1: 0

structure: O=C(O)C1C2OC3C(OC(=O)C31)C2Br (centres undefined)
TPP: 0
PreQ1: 0

structure: O=C1Nc2ccccc2NC12CCN(Cc1ccc(F)cc1Cl)CC2
TPP: 0
PreQ1: 0

structure: CCOC(=O)N1CCc2c(sc(NCc3cccc(F)c3)c2C(=O)Nc2ccccc2OCC)C1
TPP: 0
PreQ1: 0

structure: Nc1nccc(NCc2cc3n(n2)CCCN(C(=O)C2CCC2)C3)n1
TPP: 0
PreQ1: 0

structure: C=CCC(C)(NCc1ccccc1)c1cccs1 (centres undefined)
TPP: 0
PreQ1: 0

structure: Nc1ccc(-c2nccc(CCC(F)(F)F)n2)cn1
TPP: 0
PreQ1: 0

structure: NC=C1C(=O)N(c2ccccc2)C(=O)N(c2ccccc2)C1=O
TPP: 0
PreQ1: 0

structure: Cc1ccc(-c2noc(CNc3cccc(Cl)c3)n2)cc1
TPP: 0
PreQ1: 0

structure: CCN(CC)S(=O)(=O)c1ccc(NC2c3ncccc3C(=O)N2Cc2ccccc2)cc1 (centres undefined)
TPP: 0
PreQ1: 0

structure: Cc1cc(S(=O)(=O)NCC(=O)N[C@@H]2CC[C@@H](N)C2)ccc1F
TPP: 0
PreQ1: 0

structure: Cc1ccc(NC(=O)c2ccc(CN3CCN(C)CC3)cc2)cc1Nc1nccc(-c2cccnc2)n1
TPP: 0
PreQ1: 0

structure: CNCC(=O)NCc1cccnc1Oc1ccccc1OC
TPP: 0
PreQ1: 0

structure: CCCc1nnsc1C(=O)N1CCC2(CC1)OCCCC2O (centres undefined)
TPP: 0
PreQ1: 0

structure: CC1(C)CC(CCN)(Cc2ccccc2)CCO1 (centres undefined)
TPP: 0
PreQ1: 0

structure: NC1=C(c2nc3ccccc3s2)C(=O)CN1c1ccc(Cl)cc1F
TPP: 0
PreQ1: 0

structure: CC(C)=CCC1(CO)CCCN(C2CCN(C(=O)c3cnccn3)CC2)C1 (centres undefined)
TPP: 0
PreQ1: 0

Once more, the final 3:

* CC1(C)CC(CCN)(Cc2ccccc2)CCO1 (centres undefined) | TPP: 0; PreQ1: 0
* NC1=C(c2nc3ccccc3s2)C(=O)CN1c1ccc(Cl)cc1F | TPP: 0; PreQ1: 0
* CC(C)=CCC1(CO)CCCN(C2CCN(C(=O)c3cnccn3)CC2)C1 (centres undefined) | TPP: 0; PreQ1: 0

From ROBIN, a set of small-molecule microarray screens (doi:10.1002/anie.202211358).